The record followed here is the supplement of paper PMC6411743.

By UniProt entry, the sequences of proteins in these tests, tags left out. Where a name states a change or a piece, a line headed by the entry shows the natural chain unless it says otherwise.
UniProt P61011: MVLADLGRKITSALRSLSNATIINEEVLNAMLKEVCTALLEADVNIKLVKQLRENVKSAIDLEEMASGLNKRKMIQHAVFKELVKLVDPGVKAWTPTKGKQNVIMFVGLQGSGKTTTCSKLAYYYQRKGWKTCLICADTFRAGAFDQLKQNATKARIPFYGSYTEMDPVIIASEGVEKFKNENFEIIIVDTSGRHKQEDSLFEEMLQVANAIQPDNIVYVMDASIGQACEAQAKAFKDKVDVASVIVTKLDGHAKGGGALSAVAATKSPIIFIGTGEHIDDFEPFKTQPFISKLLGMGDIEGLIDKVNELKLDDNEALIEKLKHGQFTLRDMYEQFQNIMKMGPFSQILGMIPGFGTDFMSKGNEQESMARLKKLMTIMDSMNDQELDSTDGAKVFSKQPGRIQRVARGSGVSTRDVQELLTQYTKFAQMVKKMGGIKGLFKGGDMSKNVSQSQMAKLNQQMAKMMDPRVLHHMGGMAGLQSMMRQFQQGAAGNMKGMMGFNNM
UniProt P53367: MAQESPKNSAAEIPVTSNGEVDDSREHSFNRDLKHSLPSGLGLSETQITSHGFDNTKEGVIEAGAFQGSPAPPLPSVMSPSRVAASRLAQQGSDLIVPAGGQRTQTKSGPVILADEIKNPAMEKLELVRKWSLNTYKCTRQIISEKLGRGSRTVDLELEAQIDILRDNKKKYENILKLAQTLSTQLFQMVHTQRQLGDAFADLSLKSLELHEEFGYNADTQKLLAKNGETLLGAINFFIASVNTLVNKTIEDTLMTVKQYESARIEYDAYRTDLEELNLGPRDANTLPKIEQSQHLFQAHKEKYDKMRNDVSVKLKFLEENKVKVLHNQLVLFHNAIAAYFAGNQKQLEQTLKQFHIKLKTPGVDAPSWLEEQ
UniProt P82970: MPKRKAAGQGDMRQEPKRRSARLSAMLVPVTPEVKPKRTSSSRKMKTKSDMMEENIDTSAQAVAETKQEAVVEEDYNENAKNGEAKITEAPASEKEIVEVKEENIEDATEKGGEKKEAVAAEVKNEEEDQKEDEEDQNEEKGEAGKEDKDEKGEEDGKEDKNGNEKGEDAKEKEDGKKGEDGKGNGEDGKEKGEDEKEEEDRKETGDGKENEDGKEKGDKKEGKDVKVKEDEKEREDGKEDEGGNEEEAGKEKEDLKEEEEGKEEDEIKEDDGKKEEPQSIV
UniProt P50552: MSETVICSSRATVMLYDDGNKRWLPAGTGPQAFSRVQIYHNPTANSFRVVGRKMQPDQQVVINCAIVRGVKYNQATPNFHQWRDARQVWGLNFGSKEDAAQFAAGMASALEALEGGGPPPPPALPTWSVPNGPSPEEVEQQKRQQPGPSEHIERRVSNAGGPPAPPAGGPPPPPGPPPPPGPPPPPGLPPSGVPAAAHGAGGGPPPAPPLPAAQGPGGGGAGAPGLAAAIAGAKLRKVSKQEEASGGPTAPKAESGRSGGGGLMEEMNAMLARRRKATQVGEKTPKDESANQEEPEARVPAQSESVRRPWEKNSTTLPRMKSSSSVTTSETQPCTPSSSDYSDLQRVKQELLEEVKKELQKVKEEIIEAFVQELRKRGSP
UniProt P61163, whole entry: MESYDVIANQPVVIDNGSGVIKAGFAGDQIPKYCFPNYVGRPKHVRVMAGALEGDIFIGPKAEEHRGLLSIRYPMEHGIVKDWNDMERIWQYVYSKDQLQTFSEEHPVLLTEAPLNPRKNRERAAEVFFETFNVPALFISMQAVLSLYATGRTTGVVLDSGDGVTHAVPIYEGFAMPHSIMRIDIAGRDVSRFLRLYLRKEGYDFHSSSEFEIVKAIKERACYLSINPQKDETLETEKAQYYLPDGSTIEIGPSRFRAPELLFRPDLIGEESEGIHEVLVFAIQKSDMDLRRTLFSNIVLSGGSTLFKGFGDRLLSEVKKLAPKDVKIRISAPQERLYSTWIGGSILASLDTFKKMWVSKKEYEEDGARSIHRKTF
UniProt P61019: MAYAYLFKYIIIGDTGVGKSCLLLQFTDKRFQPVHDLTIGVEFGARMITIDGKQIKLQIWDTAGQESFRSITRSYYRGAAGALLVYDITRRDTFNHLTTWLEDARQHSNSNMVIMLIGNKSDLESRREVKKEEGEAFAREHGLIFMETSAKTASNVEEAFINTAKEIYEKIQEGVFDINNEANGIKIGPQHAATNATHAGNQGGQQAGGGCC
UniProt P55060: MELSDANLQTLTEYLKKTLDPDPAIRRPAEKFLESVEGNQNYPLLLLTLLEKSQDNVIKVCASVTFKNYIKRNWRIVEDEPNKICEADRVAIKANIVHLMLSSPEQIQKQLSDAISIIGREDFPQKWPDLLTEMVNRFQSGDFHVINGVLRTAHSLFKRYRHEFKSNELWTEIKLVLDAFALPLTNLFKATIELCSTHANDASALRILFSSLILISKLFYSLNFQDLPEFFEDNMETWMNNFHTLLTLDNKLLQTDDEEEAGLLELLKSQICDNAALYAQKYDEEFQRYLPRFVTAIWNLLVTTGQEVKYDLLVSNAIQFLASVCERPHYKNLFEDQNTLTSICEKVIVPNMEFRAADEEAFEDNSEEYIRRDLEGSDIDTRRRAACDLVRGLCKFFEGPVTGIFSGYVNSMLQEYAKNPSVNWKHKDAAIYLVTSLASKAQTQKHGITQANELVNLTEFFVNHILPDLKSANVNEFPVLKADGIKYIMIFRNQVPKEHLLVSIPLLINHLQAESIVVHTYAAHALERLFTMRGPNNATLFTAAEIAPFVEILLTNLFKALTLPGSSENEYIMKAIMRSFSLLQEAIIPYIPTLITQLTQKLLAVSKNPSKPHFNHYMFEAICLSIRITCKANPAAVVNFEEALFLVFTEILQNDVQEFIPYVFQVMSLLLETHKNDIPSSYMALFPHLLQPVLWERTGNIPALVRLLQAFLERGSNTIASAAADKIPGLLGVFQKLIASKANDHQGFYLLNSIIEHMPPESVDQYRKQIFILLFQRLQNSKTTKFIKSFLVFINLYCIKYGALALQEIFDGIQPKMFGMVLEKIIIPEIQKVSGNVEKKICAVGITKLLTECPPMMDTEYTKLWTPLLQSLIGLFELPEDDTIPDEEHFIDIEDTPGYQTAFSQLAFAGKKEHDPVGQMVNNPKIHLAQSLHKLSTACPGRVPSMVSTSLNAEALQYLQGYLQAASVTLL
UniProt Q00266: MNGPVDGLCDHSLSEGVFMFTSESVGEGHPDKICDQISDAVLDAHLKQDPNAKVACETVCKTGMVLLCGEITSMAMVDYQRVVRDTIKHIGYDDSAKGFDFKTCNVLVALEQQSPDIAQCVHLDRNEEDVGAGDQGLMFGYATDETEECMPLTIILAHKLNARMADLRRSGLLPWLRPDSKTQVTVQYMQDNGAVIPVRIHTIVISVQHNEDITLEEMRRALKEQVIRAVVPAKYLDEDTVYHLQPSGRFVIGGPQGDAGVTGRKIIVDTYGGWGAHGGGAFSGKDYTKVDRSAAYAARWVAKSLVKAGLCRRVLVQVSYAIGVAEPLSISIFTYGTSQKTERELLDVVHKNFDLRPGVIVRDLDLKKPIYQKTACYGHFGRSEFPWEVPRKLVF
UniProt P67809, whole entry: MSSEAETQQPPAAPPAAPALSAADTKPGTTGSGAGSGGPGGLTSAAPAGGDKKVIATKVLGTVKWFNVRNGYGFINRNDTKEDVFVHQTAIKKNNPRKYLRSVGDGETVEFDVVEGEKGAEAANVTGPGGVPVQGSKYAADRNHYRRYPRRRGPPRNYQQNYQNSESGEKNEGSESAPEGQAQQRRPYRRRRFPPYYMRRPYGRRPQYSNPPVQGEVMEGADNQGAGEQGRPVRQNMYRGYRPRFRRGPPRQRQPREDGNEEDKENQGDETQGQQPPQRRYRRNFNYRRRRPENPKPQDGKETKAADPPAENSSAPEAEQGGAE
UniProt P53677: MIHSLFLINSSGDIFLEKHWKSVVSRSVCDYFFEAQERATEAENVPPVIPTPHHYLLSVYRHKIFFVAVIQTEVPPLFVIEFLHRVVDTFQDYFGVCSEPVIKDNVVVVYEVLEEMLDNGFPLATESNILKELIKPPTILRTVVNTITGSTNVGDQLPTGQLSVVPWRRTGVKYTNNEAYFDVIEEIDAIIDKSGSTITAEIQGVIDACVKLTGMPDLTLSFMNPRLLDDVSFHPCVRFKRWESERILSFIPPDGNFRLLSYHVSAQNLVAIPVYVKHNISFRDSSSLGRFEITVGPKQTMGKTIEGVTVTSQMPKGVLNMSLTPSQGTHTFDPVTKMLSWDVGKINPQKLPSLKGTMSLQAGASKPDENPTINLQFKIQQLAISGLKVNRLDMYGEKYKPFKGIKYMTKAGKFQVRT
UniProt P51580: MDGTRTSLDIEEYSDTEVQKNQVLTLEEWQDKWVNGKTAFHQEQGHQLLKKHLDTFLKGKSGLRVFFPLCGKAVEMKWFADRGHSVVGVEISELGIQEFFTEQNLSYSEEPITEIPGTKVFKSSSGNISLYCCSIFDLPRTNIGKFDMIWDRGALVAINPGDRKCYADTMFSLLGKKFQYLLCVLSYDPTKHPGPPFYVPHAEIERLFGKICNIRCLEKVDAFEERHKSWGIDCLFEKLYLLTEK
UniProt P57772: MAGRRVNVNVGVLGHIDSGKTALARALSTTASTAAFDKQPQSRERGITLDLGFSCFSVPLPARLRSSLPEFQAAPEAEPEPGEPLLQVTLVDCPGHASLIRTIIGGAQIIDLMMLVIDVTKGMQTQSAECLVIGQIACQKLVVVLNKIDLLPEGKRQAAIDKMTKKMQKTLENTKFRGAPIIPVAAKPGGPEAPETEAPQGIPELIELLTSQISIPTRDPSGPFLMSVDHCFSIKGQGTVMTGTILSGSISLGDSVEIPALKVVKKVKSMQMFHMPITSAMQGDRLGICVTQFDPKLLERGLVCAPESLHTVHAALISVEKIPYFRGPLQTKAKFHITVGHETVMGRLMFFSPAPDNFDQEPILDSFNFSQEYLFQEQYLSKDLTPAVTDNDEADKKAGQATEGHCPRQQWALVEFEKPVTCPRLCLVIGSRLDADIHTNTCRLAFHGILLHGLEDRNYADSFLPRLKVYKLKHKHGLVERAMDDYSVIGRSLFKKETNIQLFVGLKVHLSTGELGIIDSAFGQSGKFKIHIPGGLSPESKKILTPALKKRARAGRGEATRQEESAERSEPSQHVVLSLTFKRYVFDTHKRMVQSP
UniProt P52209: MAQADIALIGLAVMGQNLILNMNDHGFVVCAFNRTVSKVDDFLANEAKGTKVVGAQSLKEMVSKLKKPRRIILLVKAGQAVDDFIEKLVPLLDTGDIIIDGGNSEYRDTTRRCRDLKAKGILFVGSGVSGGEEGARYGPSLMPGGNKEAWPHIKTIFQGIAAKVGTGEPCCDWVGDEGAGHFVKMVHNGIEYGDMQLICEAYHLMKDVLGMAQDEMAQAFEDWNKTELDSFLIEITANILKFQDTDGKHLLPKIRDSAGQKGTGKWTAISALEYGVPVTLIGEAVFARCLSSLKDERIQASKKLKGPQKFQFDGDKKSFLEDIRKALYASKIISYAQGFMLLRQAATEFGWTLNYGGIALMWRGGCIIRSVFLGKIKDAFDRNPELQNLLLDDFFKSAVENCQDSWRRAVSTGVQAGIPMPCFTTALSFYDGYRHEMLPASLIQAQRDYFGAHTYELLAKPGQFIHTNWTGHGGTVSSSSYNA
UniProt P56134: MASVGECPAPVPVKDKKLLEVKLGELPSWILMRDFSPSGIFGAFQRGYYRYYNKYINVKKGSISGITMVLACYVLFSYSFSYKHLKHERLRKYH
UniProt P50416: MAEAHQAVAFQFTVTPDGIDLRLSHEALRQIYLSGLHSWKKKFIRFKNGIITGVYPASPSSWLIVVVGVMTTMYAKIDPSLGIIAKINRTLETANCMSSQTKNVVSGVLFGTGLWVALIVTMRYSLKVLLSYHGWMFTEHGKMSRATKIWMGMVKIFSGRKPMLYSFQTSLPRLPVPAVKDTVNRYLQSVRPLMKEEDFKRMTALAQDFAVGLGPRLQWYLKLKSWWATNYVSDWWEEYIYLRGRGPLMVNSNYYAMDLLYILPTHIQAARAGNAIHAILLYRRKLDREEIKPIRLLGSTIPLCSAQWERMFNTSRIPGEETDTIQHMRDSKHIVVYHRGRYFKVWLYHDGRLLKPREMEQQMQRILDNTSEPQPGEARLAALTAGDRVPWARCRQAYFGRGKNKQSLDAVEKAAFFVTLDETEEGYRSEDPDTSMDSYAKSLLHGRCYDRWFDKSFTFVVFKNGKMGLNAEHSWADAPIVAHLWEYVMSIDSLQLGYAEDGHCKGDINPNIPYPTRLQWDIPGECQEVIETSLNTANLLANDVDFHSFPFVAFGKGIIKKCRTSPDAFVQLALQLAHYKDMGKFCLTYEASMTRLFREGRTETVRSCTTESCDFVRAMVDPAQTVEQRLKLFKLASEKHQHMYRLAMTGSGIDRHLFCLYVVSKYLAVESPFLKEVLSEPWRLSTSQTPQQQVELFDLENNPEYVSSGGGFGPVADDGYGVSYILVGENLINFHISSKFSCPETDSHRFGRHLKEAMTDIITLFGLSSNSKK
UniProt P55769: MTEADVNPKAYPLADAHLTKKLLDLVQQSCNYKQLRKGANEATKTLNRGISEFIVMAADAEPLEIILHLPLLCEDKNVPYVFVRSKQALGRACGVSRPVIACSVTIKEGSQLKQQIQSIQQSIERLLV

± gives the standard deviation of the averaged measurements. This is one part of the list.

Compound in one assay: Nc1nc2c(ncn2[C@@H]2O[C@H](COP(=O)(O)OP(=O)(O)OP(=O)(O)O)[C@@H](O)[C@H]2O)c(=O)[nH]1 [guanosine triphosphate]
The assay can be described thus: NP40-soluble protein abundance relative to vehicle (solubility fold change) (ratio); higher = more soluble protein in presence of GTP. The note with it: concentration: 0.1mM. The essentials:
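Crude Jurkat lysate, prepared by Dounce homogenisation, was exposed to eight concentrations from 0.1 to 10 mM for 10 min at room temperature and then 3 min at 37 °C. Solubilisation used 0.8% NP40 with benzonase for 60 min at 4 °C, followed by ultracentrifugation and TMT labelling of the supernatant for LC-MS/MS. After vsn normalisation of intensities, each value is the fold change against the detergent-processed vehicle within each replicate, across three independent experiments.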
As for SRP54 (UniProt P61011), the NP40-soluble protein abundance amounted to 1.01 ± 0.021.

For UniProt P61160 and related entries, the NP40-soluble protein abundance amounted to 1.05 ± 0.042.

On to UniProt P53367 and related entries, for which the NP40-soluble protein abundance was found to be 1.04 ± 0.057.

As to UniProt P61026, the NP40-soluble protein abundance was determined as 0.999 ± 0.018.

UniProt P82970 and related entries: the NP40-soluble protein abundance was 0.887 ± 0.039.

In the case of UniProt P98095 and related entries, the NP40-soluble protein abundance amounted to 1.02 ± 0.012.

For the target UniProt P84103 and related entries, the NP40-soluble protein abundance is 1 ± 0.04.

For UniProt P78527, the NP40-soluble protein abundance came out at 1.14 ± 0.1.

Regarding VASP (UniProt P50552), the NP40-soluble protein abundance was 0.924 ± 0.095.

Consider UniProt P55039 and related entries, for which the NP40-soluble protein abundance came out at 1.11 ± 0.039.

For UniProt P61163, the NP40-soluble protein abundance was 1.05 ± 0.086.

UniProt P63151 and related entries: the NP40-soluble protein abundance came to 0.983 ± 0.037.

Consider MRPS15 (UniProt P82914), for which the NP40-soluble protein abundance is 1.02 ± 0.13.

Turning to GTF2A1 (UniProt P52655), the NP40-soluble protein abundance amounted to 0.961 ± 0.058.

As for RAB2A (UniProt P61019), the NP40-soluble protein abundance came out at 0.92 ± 0.035.

As for COPB1 (UniProt P53618), the NP40-soluble protein abundance was found to be 1.05 ± 0.067.

Regarding UniProt P63272, the NP40-soluble protein abundance was determined as 0.953 ± 0.047.

For RPL10A (UniProt P62906), the NP40-soluble protein abundance worked out at 0.9486 ± 0.0092.

On to UniProt P55265 and related entries, for which the NP40-soluble protein abundance is 1.01 ± 0.061.

With UniProt P55060 and related entries, the NP40-soluble protein abundance came out at 1.016 ± 0.0067.

On to UniProt P61962, for which the NP40-soluble protein abundance worked out at 1.02 ± 0.081.

For MAT1A (UniProt Q00266), the NP40-soluble protein abundance turned out to be 1.07 ± 0.034.

On to UniProt P62081, for which the NP40-soluble protein abundance was 0.964 ± 0.091.

In the case of YBX1 (UniProt P67809), the NP40-soluble protein abundance was 0.913 ± 0.077.

As for UniProt P62249, the NP40-soluble protein abundance was 0.986 ± 0.1.

Turning to UniProt P78406 and related entries, the NP40-soluble protein abundance came out at 0.96 ± 0.035.

As to AP3M2 (UniProt P53677), the NP40-soluble protein abundance came to 0.965 ± 0.17.

Take UniProt P57081 and related entries: the NP40-soluble protein abundance was determined as 0.989 ± 0.038.

Take TPMT (UniProt P51580): the NP40-soluble protein abundance came out at 1.01 ± 0.042.

UniProt P57772 and related entries: the NP40-soluble protein abundance came out at 1.06 ± 0.046.

As to UniProt P52209 and related entries, the NP40-soluble protein abundance came out at 0.9759 ± 0.0051.

On to UniProt P62829, for which the NP40-soluble protein abundance amounted to 0.976 ± 0.081.

As to UniProt P56134 and related entries, the NP40-soluble protein abundance was determined as 1.04 ± 0.12.

For CPT1A (UniProt P50416), the NP40-soluble protein abundance amounted to 1.08 ± 0.061.

As for UniProt P55769, the NP40-soluble protein abundance was 0.888 ± 0.054.

Regarding UniProt P62269, the NP40-soluble protein abundance is 0.958 ± 0.095.

Regarding DSTN (UniProt P60981), the NP40-soluble protein abundance was 0.964 ± 0.031.

The same assay, now with this note: concentration: 0.5mM.
As for SRP54 (UniProt P61011), the NP40-soluble protein abundance was 1.015 ± 0.0062.

As to UniProt P61160 and related entries, the NP40-soluble protein abundance turned out to be 1.08 ± 0.07.

As for UniProt P53367 and related entries, the NP40-soluble protein abundance stood at 0.987 ± 0.059.

On to UniProt P61026, for which the NP40-soluble protein abundance is 0.988 ± 0.062.

Turning to UniProt P82970 and related entries, the NP40-soluble protein abundance amounted to 0.891 ± 0.013.

Take UniProt P98095 and related entries: the NP40-soluble protein abundance was 1.03 ± 0.034.

UniProt P84103 and related entries: the NP40-soluble protein abundance is 1.09 ± 0.074.

With UniProt P78527, the NP40-soluble protein abundance came out at 1.22 ± 0.19.

With VASP (UniProt P50552), the NP40-soluble protein abundance stood at 0.918 ± 0.1.

In the case of UniProt P55039 and related entries, the NP40-soluble protein abundance stood at 1.05 ± 0.074.

In the case of UniProt P61163, the NP40-soluble protein abundance stood at 1.13 ± 0.14.

For UniProt P63151 and related entries, the NP40-soluble protein abundance worked out at 1.02 ± 0.071.

Consider MRPS15 (UniProt P82914), for which the NP40-soluble protein abundance was found to be 1.12 ± 0.19.

GTF2A1 (UniProt P52655): the NP40-soluble protein abundance turned out to be 0.998 ± 0.014.

Turning to RAB2A (UniProt P61019), the NP40-soluble protein abundance was determined as 0.9465 ± 0.0077.

Turning to COPB1 (UniProt P53618), the NP40-soluble protein abundance amounted to 1.09 ± 0.08.

Take UniProt P63272: the NP40-soluble protein abundance was 0.975 ± 0.044.

For the target RPL10A (UniProt P62906), the NP40-soluble protein abundance came to 0.959 ± 0.017.

UniProt P55265 and related entries: the NP40-soluble protein abundance came to 1.06 ± 0.059.

Turning to UniProt P55060 and related entries, the NP40-soluble protein abundance worked out at 0.995 ± 0.025.

For the target UniProt P61962, the NP40-soluble protein abundance is 1.08 ± 0.089.

MAT1A (UniProt Q00266): the NP40-soluble protein abundance amounted to 1.09 ± 0.049.

With UniProt P62081, the NP40-soluble protein abundance worked out at 1.04 ± 0.056.

YBX1 (UniProt P67809): the NP40-soluble protein abundance came out at 0.937 ± 0.14.

On to UniProt P62249, for which the NP40-soluble protein abundance came out at 1 ± 0.14.

Consider UniProt P78406 and related entries, for which the NP40-soluble protein abundance came out at 0.975 ± 0.073.

Take AP3M2 (UniProt P53677): the NP40-soluble protein abundance stood at 1.09 ± 0.16.

As to UniProt P57081 and related entries, the NP40-soluble protein abundance came out at 1.05 ± 0.053.

For the target TPMT (UniProt P51580), the NP40-soluble protein abundance stood at 1 ± 0.057.

Take UniProt P57772 and related entries: the NP40-soluble protein abundance worked out at 1.09 ± 0.07.

As for UniProt P52209 and related entries, the NP40-soluble protein abundance turned out to be 0.964 ± 0.012.

On to UniProt P62829, for which the NP40-soluble protein abundance amounted to 0.973 ± 0.069.

Turning to UniProt P56134 and related entries, the NP40-soluble protein abundance is 0.968 ± 0.037.

As to CPT1A (UniProt P50416), the NP40-soluble protein abundance was 1.08 ± 0.083.

Take UniProt P55769: the NP40-soluble protein abundance was determined as 0.893 ± 0.024.

Turning to UniProt P62269, the NP40-soluble protein abundance is 0.912 ± 0.11.

Turning to DSTN (UniProt P60981), the NP40-soluble protein abundance was 0.985 ± 0.029.

The assay is the same for the next values; noted with them: concentration: 1mM.
For SRP54 (UniProt P61011), the NP40-soluble protein abundance was 0.981 ± 0.012.

With UniProt P61160 and related entries, the NP40-soluble protein abundance was 1 ± 0.049.

In the case of UniProt P53367 and related entries, the NP40-soluble protein abundance was found to be 1.01 ± 0.071.

Consider UniProt P61026, for which the NP40-soluble protein abundance came to 0.905 ± 0.048.

For UniProt P82970 and related entries, the NP40-soluble protein abundance was 0.98 ± 0.08.

Take UniProt P98095 and related entries: the NP40-soluble protein abundance amounted to 1.03 ± 0.058.

Turning to UniProt P84103 and related entries, the NP40-soluble protein abundance came out at 1.11 ± 0.044.

Take UniProt P78527: the NP40-soluble protein abundance is 1.12 ± 0.16.

For the target VASP (UniProt P50552), the NP40-soluble protein abundance is 0.957 ± 0.12.

As for UniProt P55039 and related entries, the NP40-soluble protein abundance amounted to 0.938 ± 0.025.

For the target UniProt P61163, the NP40-soluble protein abundance was 1.04 ± 0.12.

Consider UniProt P63151 and related entries, for which the NP40-soluble protein abundance turned out to be 0.934 ± 0.068.

Turning to MRPS15 (UniProt P82914), the NP40-soluble protein abundance was 1.3 ± 0.25.

Consider GTF2A1 (UniProt P52655), for which the NP40-soluble protein abundance was 1.03 ± 0.074.

Consider RAB2A (UniProt P61019), for which the NP40-soluble protein abundance stood at 0.848 ± 0.042.

For COPB1 (UniProt P53618), the NP40-soluble protein abundance came out at 1.01 ± 0.07.

Turning to UniProt P63272, the NP40-soluble protein abundance was 0.97 ± 0.014.

Consider RPL10A (UniProt P62906), for which the NP40-soluble protein abundance worked out at 0.97 ± 0.022.

As for UniProt P55265 and related entries, the NP40-soluble protein abundance was determined as 1.04 ± 0.063.

In the case of UniProt P55060 and related entries, the NP40-soluble protein abundance was determined as 0.965 ± 0.014.

Turning to UniProt P61962, the NP40-soluble protein abundance came to 0.988 ± 0.07.

In the case of MAT1A (UniProt Q00266), the NP40-soluble protein abundance turned out to be 1 ± 0.13.

With UniProt P62081, the NP40-soluble protein abundance is 1.11 ± 0.13.

Take YBX1 (UniProt P67809): the NP40-soluble protein abundance is 1.09 ± 0.079.

With UniProt P62249, the NP40-soluble protein abundance is 1.07 ± 0.23.

For UniProt P78406 and related entries, the NP40-soluble protein abundance was found to be 0.946 ± 0.061.

As for AP3M2 (UniProt P53677), the NP40-soluble protein abundance was determined as 1 ± 0.019.

Regarding UniProt P57081 and related entries, the NP40-soluble protein abundance was 1 ± 0.037.

Consider TPMT (UniProt P51580), for which the NP40-soluble protein abundance is 0.93 ± 0.058.

Consider UniProt P57772 and related entries, for which the NP40-soluble protein abundance worked out at 1.01 ± 0.042.

In the case of UniProt P52209 and related entries, the NP40-soluble protein abundance was found to be 0.926 ± 0.024.

For UniProt P62829, the NP40-soluble protein abundance is 0.949 ± 0.082.

UniProt P56134 and related entries: the NP40-soluble protein abundance worked out at 1.08 ± 0.17.

Take CPT1A (UniProt P50416): the NP40-soluble protein abundance stood at 1.01 ± 0.086.

For UniProt P55769, the NP40-soluble protein abundance stood at 1.06 ± 0.089.

With UniProt P62269, the NP40-soluble protein abundance came to 0.982 ± 0.15.

Consider DSTN (UniProt P60981), for which the NP40-soluble protein abundance stood at 0.919 ± 0.025.
